According to paper PMC6099276:
Results are given in words; binding and its absence hold for the method and conditions named. For some assays here: Binding seen in cells or lysates may run through a third protein. Some results given as binding are weak or reduced against the parent protein; the word gives no strength. For some assays here: Sequences can lack the tags named with a protein. Blank lines part the entries; values can stand above or below the binder they belong to.

Columns and labels:
[1] = target: T1, USL1-Cub (Arabidopsis thaliana) (UniProt Q8S9J3); experiment: two-hybrid; split-ubiquitin yeast two-hybrid; USL1 forms as Cub fusions (MetYCgate), NubG-VPS30 (pPR3-N); yeast strain NMY51; growth on SD-Trp-Leu-His-Ade
T1 sequence: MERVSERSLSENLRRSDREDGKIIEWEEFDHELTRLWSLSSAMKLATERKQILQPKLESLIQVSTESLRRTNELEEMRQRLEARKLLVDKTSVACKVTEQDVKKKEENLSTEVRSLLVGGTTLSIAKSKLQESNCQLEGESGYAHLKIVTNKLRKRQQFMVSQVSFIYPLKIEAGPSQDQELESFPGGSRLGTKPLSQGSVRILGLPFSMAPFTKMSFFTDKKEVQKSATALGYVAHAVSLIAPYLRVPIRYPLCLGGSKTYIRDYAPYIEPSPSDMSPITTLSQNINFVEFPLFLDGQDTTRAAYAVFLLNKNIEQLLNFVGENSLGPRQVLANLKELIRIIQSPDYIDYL

[2] = target: T2, USL1-nLUC (Arabidopsis thaliana) (UniProt Q8S9J3); experiment: split reporter; firefly luciferase complementation imaging; USL1-nLUC and cLUC-VPS30 co-infiltrated into N. benthamiana leaves; low-light cooled CCD imaging
T2 sequence: T1 sequence

binding [1]: binds
B1: NubG-VPS30 (protein, UniProt Q9M367 1-517)
chain: MRKEEIPDKSRTIPIDPNLPKWVCQNCHHSLTIVGVDSYAGKFFNDPPPSATQGSSIHGANSVLGSTRMDNSFVVLPRHKPPQSQGIPPRPRGASSPQPDATQSGKAMEESFVVVYKSEPVSDSGGSHNLSLEVGQNGPLHSNTSGFNATINVLTRAFDIARTQTQVEQPLCLECMRVLSDKLEKEVEDVTRDVEAYEACVQRLEGETQDVLSEADFLKEKKKIEEEERKLVAAIEETEKQNAEVNHQLKELEFKGNRFNELEDRYWQEFNNFQFQLIAHQEERDAILAKIEVSQAHLELLNKTNVLIDAFPIRNDGEFGTINNFRLGRLPAIKVEWDEINAAWGQACLLLHTMCNYFRPKFQCQVKIQPMGSYPRIVDSNNETYELFGPVNLFWSTRYDKAMTLYLMCLKDFADFANSKDQENNIPPDNCLNLPYKIEKDKVLGYSITQSFNKQESWTKALKYTLCNLKWALYWFVGNTNFQPLSATVSLPSNISAAGSLYAKRGPDSSKPSCKKT

binding [2]: binds
B2: cLUC-AtVPS30 (protein, UniProt Q9M367 1-517)
chain: B1 chain
